Reference: patent US7230085B2, “Anti-DOTA antibody” (Immunomedics, Inc., priority 2001, dated 2007)
Part of at least one peptide drawing is inferred or uncertain, most often the ends. Where a SMILES comes first, the peptide text is derived from it. The star is where a group is joined. DOTA = O=C(O)CN1CCN(CC(=O)O)CCN(CC(=O)*)CCN(CC(=O)O)CC1

What was measured:
LG1 IgG antibody = experiment: Binding of radiolabeled IMP 236 by LG1 on size-exclusion HPLC; design: species or system mouse; conditions: mixed with excess LG1; SE-HPLC shift
Experimental: Typical procedures for the production of radiolabeled DOTA-peptides incorporating, for example, Y-90 and Lu-177 are as follows. Of particular importance is the maximum specific activity achievable, which depends on the quality of the isotope. The radionuclide, obtained in an acidic solution, is treated with an excess of an acetate buffer, to a final pH of 4-6, and added to the DOTA-peptide conjugate, also in acetate buffer. All manipulations are carried out using acid-washed and metal-free components. The labeling mixture is heated at 45° C. for one hour and then allowed to cool to room temperature. Radiolabeled peptides are analyzed by RP-HPLC to determine incorporation, and are tested for binding to LG1, by mixing with a small excess of the LG1 mAb, and testing by analytical size-exclusion HPLC.
Yttrium-90 (^˜400 uCi per kit) is diluted to 1 mL in deionized water and added in one portion to the lyophilized IMP 236 kits of example 12. The kits are heated in a boiling water-bath for 15 min, and the vials then cooled to room temperature. The Y-90 radiolabeled peptides are analyzed by reverse-phase HPLC. […]
Indium-111 [In-111] radionuclide (^˜300 uCi added per kit) is diluted to 0.5 mL in deionized water and added to the lyophilized kits. […] The labeled peptide vials are cooled to room temperature and evaluated by reverse-phase HPLC. […]

msAb hMN-14×LG1 = experiment: Binding of In-111-IMP-236 by msAb on SE-HPLC; conditions: mixed with excess msAb; SE-HPLC shift

Q: How did the “binding of radiolabeled peptide by LG1” value (LG1 IgG antibody) turn out when `CC(=O)N[C@@H](Cc1ccccc1)C(=O)N[C@@H](CCCCNC(=O)CN1CCN(CC(=O)O)CCN(CC(=O)O)CCN(CC(=O)O)CC1)C(=O)N[C@@H](Cc1ccc(O)cc1)C(=O)N[C@@H](CCCCNC(=O)CN1CCN(CC(=O)O)CCN(CC(=O)O)CCN(CC(=O)O)CC1)C(N)=O` [In-111-IMP-236, metal not drawn] (Ac-FK(DOTA)YK(DOTA)-NH2) was run?
A: The value was “completely bound”.

Q: And the “binding of In-111-labeled peptide by LG1-containing msAb” value (msAb hMN-14×LG1)?
A: Its value is “retained ability of the In-111-labeled peptide to be bound”.
